This is an account of results in the supplement of paper PMC12823440, “Inhibitors supercharge kinase turnover through native proteolytic circuits” (Nature, 2025).

Chains of the proteins cited; added tags and fusions are not shown. Lines headed by an entry give the natural chain unless they say otherwise; changes in a name come on top.
UniProt Q15208: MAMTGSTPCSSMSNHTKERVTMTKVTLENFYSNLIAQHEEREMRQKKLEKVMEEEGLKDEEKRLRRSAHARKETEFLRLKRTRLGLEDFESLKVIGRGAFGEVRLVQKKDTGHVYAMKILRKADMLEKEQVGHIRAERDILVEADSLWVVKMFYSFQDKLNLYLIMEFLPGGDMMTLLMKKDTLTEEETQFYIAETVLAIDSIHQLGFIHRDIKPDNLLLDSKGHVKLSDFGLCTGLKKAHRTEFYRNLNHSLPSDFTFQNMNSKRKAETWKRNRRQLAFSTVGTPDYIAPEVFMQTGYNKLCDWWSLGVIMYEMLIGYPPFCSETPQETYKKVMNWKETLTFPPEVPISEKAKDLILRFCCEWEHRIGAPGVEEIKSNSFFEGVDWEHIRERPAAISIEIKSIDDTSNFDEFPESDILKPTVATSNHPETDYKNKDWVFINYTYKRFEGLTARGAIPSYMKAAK
UniProt P29597: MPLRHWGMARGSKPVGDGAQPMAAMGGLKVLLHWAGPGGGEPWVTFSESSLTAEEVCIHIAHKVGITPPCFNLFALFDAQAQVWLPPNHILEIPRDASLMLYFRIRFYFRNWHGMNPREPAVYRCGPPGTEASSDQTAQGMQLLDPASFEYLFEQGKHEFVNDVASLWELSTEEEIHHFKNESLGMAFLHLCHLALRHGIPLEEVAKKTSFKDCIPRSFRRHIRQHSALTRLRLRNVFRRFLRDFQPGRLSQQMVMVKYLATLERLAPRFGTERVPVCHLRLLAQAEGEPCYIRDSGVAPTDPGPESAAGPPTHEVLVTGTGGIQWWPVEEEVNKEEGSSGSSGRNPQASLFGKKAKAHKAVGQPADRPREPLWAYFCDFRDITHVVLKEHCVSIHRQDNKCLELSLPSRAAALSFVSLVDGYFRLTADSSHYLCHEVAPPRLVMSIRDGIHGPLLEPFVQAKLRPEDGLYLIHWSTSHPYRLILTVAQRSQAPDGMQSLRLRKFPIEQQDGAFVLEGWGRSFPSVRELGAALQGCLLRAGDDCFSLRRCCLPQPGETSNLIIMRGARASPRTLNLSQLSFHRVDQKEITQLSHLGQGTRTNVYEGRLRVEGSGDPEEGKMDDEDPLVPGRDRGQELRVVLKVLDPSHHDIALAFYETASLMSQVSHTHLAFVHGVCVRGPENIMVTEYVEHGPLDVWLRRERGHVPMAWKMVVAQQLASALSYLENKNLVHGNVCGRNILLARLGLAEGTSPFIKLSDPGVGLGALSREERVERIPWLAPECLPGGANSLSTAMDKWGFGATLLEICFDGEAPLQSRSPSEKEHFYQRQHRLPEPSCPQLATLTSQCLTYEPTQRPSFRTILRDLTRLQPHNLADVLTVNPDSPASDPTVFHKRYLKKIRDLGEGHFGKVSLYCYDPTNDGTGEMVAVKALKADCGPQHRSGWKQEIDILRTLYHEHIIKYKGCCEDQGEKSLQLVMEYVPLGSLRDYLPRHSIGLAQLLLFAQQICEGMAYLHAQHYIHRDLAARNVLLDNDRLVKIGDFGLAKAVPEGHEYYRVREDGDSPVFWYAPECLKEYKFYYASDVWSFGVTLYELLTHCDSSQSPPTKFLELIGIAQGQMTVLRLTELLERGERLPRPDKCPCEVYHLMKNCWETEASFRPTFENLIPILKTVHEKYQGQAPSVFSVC
UniProt Q6PHR2: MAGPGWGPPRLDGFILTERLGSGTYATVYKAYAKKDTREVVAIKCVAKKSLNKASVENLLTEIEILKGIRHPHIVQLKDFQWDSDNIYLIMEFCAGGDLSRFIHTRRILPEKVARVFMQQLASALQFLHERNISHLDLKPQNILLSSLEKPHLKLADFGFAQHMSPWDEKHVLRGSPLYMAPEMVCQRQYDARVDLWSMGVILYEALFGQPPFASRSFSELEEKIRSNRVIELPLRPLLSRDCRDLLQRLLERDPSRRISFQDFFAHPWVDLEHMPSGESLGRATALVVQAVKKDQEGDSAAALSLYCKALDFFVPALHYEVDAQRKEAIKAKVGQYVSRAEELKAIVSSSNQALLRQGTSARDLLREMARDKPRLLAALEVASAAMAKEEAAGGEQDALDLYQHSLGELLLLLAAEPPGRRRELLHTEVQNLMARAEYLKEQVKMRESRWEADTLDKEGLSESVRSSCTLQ
UniProt P00519, whole entry: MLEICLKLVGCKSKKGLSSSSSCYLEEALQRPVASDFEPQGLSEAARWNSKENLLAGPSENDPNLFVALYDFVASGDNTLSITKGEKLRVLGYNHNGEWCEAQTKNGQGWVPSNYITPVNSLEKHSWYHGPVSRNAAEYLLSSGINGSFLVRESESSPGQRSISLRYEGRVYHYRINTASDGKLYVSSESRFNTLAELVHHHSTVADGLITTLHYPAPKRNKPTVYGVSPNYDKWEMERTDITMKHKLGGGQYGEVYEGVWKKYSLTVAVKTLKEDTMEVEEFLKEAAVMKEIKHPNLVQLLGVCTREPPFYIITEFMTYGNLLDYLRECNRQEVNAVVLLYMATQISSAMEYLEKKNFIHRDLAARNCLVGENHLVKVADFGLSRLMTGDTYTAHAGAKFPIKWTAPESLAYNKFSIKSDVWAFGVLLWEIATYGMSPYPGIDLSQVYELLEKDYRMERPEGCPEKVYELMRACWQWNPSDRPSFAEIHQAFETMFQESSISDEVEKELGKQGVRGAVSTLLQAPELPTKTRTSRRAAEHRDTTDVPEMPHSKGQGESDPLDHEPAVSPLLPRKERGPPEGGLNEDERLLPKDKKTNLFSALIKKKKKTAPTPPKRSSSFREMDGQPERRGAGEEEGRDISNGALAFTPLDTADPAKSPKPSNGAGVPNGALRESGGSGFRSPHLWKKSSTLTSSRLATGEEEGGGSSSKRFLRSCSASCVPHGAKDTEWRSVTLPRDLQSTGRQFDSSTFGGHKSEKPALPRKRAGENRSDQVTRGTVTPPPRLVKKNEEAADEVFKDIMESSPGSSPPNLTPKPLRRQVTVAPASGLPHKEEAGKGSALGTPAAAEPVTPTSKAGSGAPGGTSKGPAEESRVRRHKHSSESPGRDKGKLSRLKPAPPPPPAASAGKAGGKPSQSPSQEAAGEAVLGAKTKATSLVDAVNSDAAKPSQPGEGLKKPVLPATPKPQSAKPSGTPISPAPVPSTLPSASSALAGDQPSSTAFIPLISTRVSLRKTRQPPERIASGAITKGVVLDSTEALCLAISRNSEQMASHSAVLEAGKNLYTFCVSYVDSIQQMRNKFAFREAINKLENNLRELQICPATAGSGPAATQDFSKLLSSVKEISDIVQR
UniProt O14965: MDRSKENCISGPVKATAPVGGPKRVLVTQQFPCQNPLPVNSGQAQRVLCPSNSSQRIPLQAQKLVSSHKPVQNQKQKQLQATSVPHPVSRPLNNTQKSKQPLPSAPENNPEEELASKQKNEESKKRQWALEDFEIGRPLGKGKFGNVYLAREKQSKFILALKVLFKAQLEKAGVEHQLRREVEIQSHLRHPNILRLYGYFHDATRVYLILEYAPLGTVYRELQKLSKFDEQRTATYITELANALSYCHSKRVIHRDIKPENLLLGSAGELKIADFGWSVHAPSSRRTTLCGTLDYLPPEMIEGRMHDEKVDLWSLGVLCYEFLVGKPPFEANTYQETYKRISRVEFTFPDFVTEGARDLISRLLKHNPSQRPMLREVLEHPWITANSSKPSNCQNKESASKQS
UniProt Q96GD4, whole entry: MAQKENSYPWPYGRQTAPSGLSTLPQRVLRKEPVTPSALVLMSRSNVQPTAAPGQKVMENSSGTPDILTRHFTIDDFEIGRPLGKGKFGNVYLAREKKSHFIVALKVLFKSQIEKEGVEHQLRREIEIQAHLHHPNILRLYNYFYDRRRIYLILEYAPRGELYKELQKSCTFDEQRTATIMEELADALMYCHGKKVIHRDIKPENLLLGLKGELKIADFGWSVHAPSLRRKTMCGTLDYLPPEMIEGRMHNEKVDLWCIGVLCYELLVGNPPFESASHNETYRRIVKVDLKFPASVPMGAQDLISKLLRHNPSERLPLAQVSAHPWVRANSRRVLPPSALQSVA
UniProt Q9UQB9: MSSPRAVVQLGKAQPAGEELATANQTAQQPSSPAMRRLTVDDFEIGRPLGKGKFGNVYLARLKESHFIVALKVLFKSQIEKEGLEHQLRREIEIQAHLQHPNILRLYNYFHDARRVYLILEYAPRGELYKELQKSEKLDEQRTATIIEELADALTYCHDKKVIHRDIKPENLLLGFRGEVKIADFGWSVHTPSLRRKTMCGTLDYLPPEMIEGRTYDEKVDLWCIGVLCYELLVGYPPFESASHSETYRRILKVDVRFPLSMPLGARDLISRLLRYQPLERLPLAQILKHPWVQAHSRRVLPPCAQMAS
UniProt P51813: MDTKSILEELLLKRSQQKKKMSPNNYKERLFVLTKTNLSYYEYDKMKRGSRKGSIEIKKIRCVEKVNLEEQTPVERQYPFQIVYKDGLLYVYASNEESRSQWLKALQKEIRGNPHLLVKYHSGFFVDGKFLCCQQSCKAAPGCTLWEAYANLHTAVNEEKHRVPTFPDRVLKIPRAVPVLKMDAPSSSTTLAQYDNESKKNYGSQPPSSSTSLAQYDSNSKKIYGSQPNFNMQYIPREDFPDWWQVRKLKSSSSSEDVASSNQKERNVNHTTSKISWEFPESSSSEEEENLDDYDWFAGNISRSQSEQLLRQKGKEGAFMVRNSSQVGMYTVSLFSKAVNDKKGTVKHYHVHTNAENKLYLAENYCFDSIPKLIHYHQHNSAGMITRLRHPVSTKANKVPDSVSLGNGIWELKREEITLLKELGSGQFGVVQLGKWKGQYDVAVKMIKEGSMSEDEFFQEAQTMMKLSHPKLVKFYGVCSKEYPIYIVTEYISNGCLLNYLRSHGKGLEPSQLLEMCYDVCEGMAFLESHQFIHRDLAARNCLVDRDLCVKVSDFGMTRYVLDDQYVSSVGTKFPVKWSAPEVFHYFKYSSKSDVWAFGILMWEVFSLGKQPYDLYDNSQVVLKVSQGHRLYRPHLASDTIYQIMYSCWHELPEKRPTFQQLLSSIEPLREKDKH
UniProt P15056, whole entry, looked up: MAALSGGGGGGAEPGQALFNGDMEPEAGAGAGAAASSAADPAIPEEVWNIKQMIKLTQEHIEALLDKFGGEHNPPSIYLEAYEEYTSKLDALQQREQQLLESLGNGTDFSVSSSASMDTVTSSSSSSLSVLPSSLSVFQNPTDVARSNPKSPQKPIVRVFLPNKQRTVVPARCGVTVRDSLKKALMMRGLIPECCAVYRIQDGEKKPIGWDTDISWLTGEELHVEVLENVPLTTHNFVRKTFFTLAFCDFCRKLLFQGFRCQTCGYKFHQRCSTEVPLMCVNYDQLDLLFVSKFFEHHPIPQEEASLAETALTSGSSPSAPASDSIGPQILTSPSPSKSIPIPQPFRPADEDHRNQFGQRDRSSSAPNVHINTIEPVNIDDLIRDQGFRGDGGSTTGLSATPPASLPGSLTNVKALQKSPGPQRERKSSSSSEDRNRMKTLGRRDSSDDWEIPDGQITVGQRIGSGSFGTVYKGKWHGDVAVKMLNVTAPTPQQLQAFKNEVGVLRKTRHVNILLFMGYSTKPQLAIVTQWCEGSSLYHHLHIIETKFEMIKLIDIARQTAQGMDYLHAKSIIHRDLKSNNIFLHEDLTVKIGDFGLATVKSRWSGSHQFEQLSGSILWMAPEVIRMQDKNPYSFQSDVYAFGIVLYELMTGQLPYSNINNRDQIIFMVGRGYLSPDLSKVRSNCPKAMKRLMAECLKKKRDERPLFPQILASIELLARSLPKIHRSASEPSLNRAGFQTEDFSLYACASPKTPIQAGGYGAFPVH
UniProt Q06187: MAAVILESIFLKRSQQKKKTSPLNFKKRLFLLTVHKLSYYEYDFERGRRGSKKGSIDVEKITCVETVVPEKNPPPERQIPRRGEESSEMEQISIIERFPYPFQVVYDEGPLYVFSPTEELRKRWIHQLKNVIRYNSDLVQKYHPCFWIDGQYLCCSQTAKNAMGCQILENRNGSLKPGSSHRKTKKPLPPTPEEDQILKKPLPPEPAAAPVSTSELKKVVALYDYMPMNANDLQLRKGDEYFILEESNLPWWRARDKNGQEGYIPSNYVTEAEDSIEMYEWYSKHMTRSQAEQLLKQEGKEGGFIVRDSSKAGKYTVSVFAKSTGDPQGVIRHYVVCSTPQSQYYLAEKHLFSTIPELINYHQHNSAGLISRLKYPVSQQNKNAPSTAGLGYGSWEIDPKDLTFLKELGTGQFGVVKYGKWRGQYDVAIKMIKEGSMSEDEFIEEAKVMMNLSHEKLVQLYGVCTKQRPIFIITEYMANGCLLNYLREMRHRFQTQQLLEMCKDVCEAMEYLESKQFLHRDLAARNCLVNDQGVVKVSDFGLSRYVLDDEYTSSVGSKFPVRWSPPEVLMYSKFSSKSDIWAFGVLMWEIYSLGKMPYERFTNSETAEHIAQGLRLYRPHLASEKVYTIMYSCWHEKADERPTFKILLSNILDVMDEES

Details in all cases: K562; 2-18 h
One experiment addresses STK38 (UniProt Q15208). The experiment can be described thus: kinase-Nluc reporter destabilization hit call (1 = scored as downregulated) (binary); higher = compound decreases kinase abundance.
Another experiment deals with SYK (UniProt P43405). The experiment is described as above.
For the next experiment, the target named is TEC (UniProt P42680). Described as above.
Another experiment concerns the target TYK2 (UniProt P29597). Described as above.
For the next experiment, the target named is ULK3 (UniProt Q6PHR2). Described as above.
The target of a further experiment is YES1 (UniProt P07947). The experiment is described as above.
A further experiment concerns the target ZAK (UniProt Q9NYL2). Described as above.
The target in another experiment is ZAP70 (UniProt P43403). Described as above.
Another experiment addresses ABL1 (UniProt P00519). The experiment can be described thus: number of time points (of 5) at which kinase-Nluc abundance scored as decreased, DMSO-normalised (count); higher = more persistent destabilization.
The target of the next experiment is AKT1 (UniProt P31749). The experiment is described as above.
For another experiment, the target named is ALK (UniProt Q9UM73). Described as above.
In the next experiment the target is ARAF (UniProt P10398). The experiment is described as above.
Another experiment addresses AURKA (UniProt O14965). The experiment is described as above.
The next experiment concerns the target AURKB (UniProt Q96GD4). The experiment is described as above.
Another experiment deals with AURKC (UniProt Q9UQB9). The experiment is described as above.
The next experiment concerns the target BLK (UniProt P51451). The experiment is described as above.
The next experiment addresses BMX (UniProt P51813). The experiment is described as above.
A further experiment concerns the target BRAF (UniProt P15056). The experiment is described as above.
The next experiment relates to BRAF_V600E. The description is as above.
The target of the next experiment is BTK (UniProt Q06187). Described as above.

The structures appear in SMILES notation. This is one part of the list. The calls rarely recur for the same compound in another form.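 Kinases were expressed as nanoluciferase fusions in K562 cells and luminescence was read every 4 h between 2 and 18 h as percent of control, DMSO set to 100% and a positive control to 0%. A time point counts as decreased when the signal drops significantly (2 sigma). The hit call is the authors' own, does not follow from the count of time points alone, and its rule is not shown.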

For `CC(=O)N1CCC(c2cc(-c3ccc(NC(=O)c4cccn(-c5ccc(F)cc5)c4=O)cc3F)c3c(N)ncnn23)CC1` (0.5 µM), the “kinase-Nluc reporter destabilization hit call” value in the experiment with STK38, in the experiment with SYK, with TEC, in the experiment with TYK2, in the experiment with ULK3 and in the experiment with YES1 was inactive: 0 throughout. Also, the “kinase-Nluc reporter destabilization hit call” value with ZAK and in the experiment with ZAP70 was inactive: 0 throughout. Also, the “number of time points” value with ABL1, in the experiment with AKT1, with ALK, with ARAF, with AURKA and in the experiment with AURKB was 0 throughout. The “number of time points” value with AURKC, with BLK, with BMX, with BRAF, in the experiment on BRAF_V600E and with BTK was 0 throughout.

Consider `COc1cc(N2CCOCC2)ccc1NC(=O)c1csc(-c2cccnc2)n1` [IRAK inhibitor 6] (10 µM), for which the “kinase-Nluc reporter destabilization hit call” value with STK38, with SYK, with TEC, with TYK2, with ULK3 and with YES1 was inactive: 0 throughout. In addition, the “kinase-Nluc reporter destabilization hit call” value with ZAK and with ZAP70 was inactive: 0 in each case. Besides, the “number of time points” value with ABL1, in the experiment with AKT1, with ALK, with ARAF, with AURKA and with AURKB was 0 each time. Moreover, the “number of time points” value with AURKC, in the experiment with BLK, with BMX, with BRAF, with BRAF_V600E and with BTK was 0 throughout.

On to `Cc1cc(-c2ccnc(Nc3cnn(C)c3)n2)ccc1CNC(=O)N1CC(OC(C)C)C1` (10 µM), for which the “kinase-Nluc reporter destabilization hit call” value with STK38, in the experiment with SYK, with TEC, in the experiment with TYK2, with ULK3 and with YES1 was inactive: 0 in each case. Besides, the “kinase-Nluc reporter destabilization hit call” value with ZAK and in the experiment with ZAP70 was inactive: 0 throughout. The “number of time points” value with ABL1, in the experiment with AKT1, in the experiment with ALK, in the experiment with ARAF, with AURKA and in the experiment with AURKB was 0 each time. The “number of time points” value with AURKC, with BLK, with BMX, in the experiment with BRAF, in the experiment on BRAF_V600E and with BTK was 0 throughout.

With `CC(C)c1cccc(C(C)C)c1N1C(=O)c2ccc(N)cc2C1=O` (2.5 µM), the “kinase-Nluc reporter destabilization hit call” value in the experiment with STK38, in the experiment with SYK, in the experiment with TEC, in the experiment with TYK2, with ULK3 and with YES1 was inactive: 0 each time. Also, the “kinase-Nluc reporter destabilization hit call” value with ZAK and in the experiment with ZAP70 was inactive: 0 in each case. Besides, the “number of time points” value with ABL1, in the experiment with AKT1, with ALK, with ARAF, with AURKA and with AURKB was 0 throughout. In addition, the “number of time points” value in the experiment with AURKC, in the experiment with BLK, with BMX, with BRAF, with BRAF_V600E and in the experiment with BTK was 0 each time.

`O=Nc1c2[nH]c3ccccc3nc-2c2ccccc12` [IQ-1S (free acid)] (2.5 µM): the “kinase-Nluc reporter destabilization hit call” value in the experiment with STK38, with SYK, with TEC, in the experiment with TYK2, with ULK3 and in the experiment with YES1 was inactive: 0 each time. Further, the “kinase-Nluc reporter destabilization hit call” value in the experiment with ZAK and with ZAP70 was inactive: 0 each time. Also, the “number of time points” value with ABL1, in the experiment with AKT1, with ALK, with ARAF, with AURKA and with AURKB was 0 throughout. In addition, the “number of time points” value with AURKC, with BLK, with BMX, in the experiment with BRAF, in the experiment on BRAF_V600E and with BTK was 0 in each case.
